Assay results as given in PubChem BioAssay AID1487 (National Center for Advancing Translational Sciences (NCATS), 2009).
Some of the results follow. Shown are side measurements of this screen, not its main read-out; they come without a call. Compounds called inactive in the main read-out are mostly missing here. Potencies come from curve fits of mixed quality, noted in brackets.

Test: qHTS Assay for Modulators of Lamin A Splicing
Conditions: HeLa LMNA splicing GFP/RFP minigene ratio, 48 h
Summary of the method: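 S3 HeLa cells stably expressing lamin A-EGFP splicing minigene plus DsRed2, 600 cells/well, 48 h compound exposure at 37C. Laser-scanning cytometry; analysed as GFP (500-530 nm)/RFP (575-640 nm) total intensity ratio; 0.5% DMSO vehicle.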

[1] = measured here: RFP viability control channel
[2] = measured here: GFP splicing reporter channel

Compound | AC50 [1] | AC50 [2]
O=C(OCn1ncc(Br)c(Br)c1=O)c1ccccc1Cl | 35.5 µM [rising, single point] | 
O=C(CN1CCCN(S(=O)(=O)c2ccc(Br)s2)CC1)Nc1ccc(Cl)cc1 | 35.5 µM [rising, single point] | 14.1 µM [rising, single point]
Cc1nc2ccccc2c(=O)n1Nc1cccc(Cl)c1 | 0.00316 µM [falling, full curve, poor fit] | 
Cc1ccccc1NC(=O)CSc1ccncc1 | 35.5 µM [falling, single point] | 
C[C@H](CCC(=O)O)[C@H]1CC[C@H]2[C@@H]3CC[C@@H]4C[C@H](O)CC[C@]4(C)[C@H]3C[C@H](O)[C@]12C | 12.6 µM [rising, single point] | 0.708 µM [falling, partial curve]
Oc1c(C(c2ccccc2)N2CCCCC2)sc2ncnn12 (stereo not drawn) | 35.5 µM [rising, single point] | 
CCN1C(=O)C(c2ccc(O)cc2)(c2ccc(O)cc2)c2ccccc21 |  | 5.01 µM [falling, partial curve, poor fit]
Cc1ccc(S(=O)(=O)N(CC(=O)O)Cc2ccccc2)cc1 | 10 µM [falling, partial curve] | 12.6 µM [falling, partial curve, poor fit]
C=CCc1ccc(OCCCCNC2CCCC2)c(OC)c1 | 3.98 µM [rising, partial curve, poor fit] | 
Cc1ccnc(NC(=O)C23CC4CC(CC(C4)C2)C3)c1 | 20 µM [rising, partial curve] | 
Nc1nc(-c2ccccc2)nc2sc3c(c12)CCCC3 | 20 µM [rising, single point] | 
Nc1ccc2cc3ccc(N)cc3nc2c1 | 12.6 µM [falling, partial curve, poor fit] | 5.01 µM [rising, single point]
Cc1nc2ccccc2c2nc3ccccc3n12 | 10 µM [rising, single point] | 
Cc1cccc(CNc2ncncc2-c2ccccc2Cl)c1 |  | 35.5 µM [falling, single point]
CCOc1ccc(Br)cc1C1C(C(=O)OC)=C(N)Oc2cc(N(C)C)ccc21 (stereo not drawn) | 11.2 µM [falling, partial curve] | 28.2 µM [falling, single point]
CCC1CN(C(=O)Nc2cccc3c2CCCC3)c2ccccc2O1 (stereo not drawn) |  | 3.98 µM [rising, single point]
Cc1nnc(NC(=O)CSc2ccc3nnc(-c4cccnc4)n3n2)s1 | 0.891 µM [falling, full curve, poor fit] | 0.562 µM [falling, full curve]
CCCCC1CCC(/C(N)=N/O)CC1 (stereo not drawn) | 35.5 µM [rising, single point] | 22.4 µM [rising, single point]
CC1(CCc2ccccc2)NC(=O)N(CC(=O)Nc2ccc(S(N)(=O)=O)cc2)C1=O (stereo not drawn) | 11.2 µM [rising, partial curve] | 
O=C(c1cccs1)N(c1ccc(F)cc1)C1C=CS(=O)(=O)C1 (stereo not drawn) | 17.8 µM [falling, partial curve, poor fit] | 
CC(C(=O)Oc1ccc2c(c1)OCO2)N1C(=O)c2ccccc2C1=O (stereo not drawn) | 11.2 µM [rising, partial curve] | 
Cn1c2[n+](c3ccc(Cl)cc3c1=O)Cc1ccccc1-2 | 22.4 µM [falling, single point] | 12.6 µM [falling, single point]
CC1(C)Cc2ccccc2C(NNC(=O)c2ccccn2)=N1 | 12.6 µM [rising, single point] | 
CCOC(=O)c1[nH]c2c(c1-c1ccccc1)C(=O)CC(c1ccc(OC)c(OC)c1)C2 (stereo not drawn) | 14.1 µM [rising, partial curve] | 
CCOC(=O)c1c(C)c(C(=O)NCc2ccccn2)c(C)n1C | 0.112 µM [falling, partial curve, poor fit] | 
CCC(Sc1nc2ccccc2c2nc(-c3ccccc3)nn12)C(=O)Nc1cccc(OC)c1 (stereo not drawn) | 0.158 µM [rising, full curve, poor fit] | 0.112 µM [rising, full curve, poor fit]
Cc1occc1-c1nnc(SCC(=O)Nc2nc(C(C)(C)C)cs2)o1 | 10 µM [rising, partial curve] | 
O=C(NCCOc1ccccc1)c1cc(C(=O)NCCOc2ccccc2)cc([N+](=O)[O-])c1 | 22.4 µM [rising, single point] | 12.6 µM [rising, single point]

Compound | AC50 [1] | AC50 [2]
O=C(Nc1nccs1)c1ccc(COc2ccc(F)cc2)o1 |  | 20 µM [rising, partial curve]
Cc1ccc(-n2c(O)c(C=Nc3cc(C)on3)c3ccccc3c2=O)c(C)c1 | 12.6 µM [rising, partial curve] | 
COC(=O)C(C)Sc1ccc2nnc(CCNS(=O)(=O)c3ccccc3)n2n1 (stereo not drawn) |  | 14.1 µM [falling, single point]
O=C(Nc1cccc(Cl)c1)c1ccc(F)c(S(=O)(=O)N2CCC3(CC2)OCCO3)c1 | 11.2 µM [falling, partial curve] | 
Cc1ccc(S(=O)(=O)c2c(C)nn(C(C)(C)C)c2OC(=O)c2cccs2)cc1 | 25.1 µM [falling, single point] | 35.5 µM [falling, single point]
O=C(Nc1ccc(F)cc1F)c1cc2nc(-c3ccco3)cc(C(F)(F)Cl)n2n1 | 0.1 µM [falling, full curve, poor fit] | 0.1 µM [falling, full curve]
CC1=NN(C(=O)Cn2ccc([N+](=O)[O-])n2)C(O)(C(F)(F)F)C1 (stereo not drawn) |  | 14.1 µM [rising, single point]
CCn1c(CCNC(=O)c2ccc(OC)cc2)nnc1SCc1ccc(Cl)cc1Cl | 12.6 µM [rising, single point] | 
O=C(C1CCN(CCCc2ccccc2)CC1)N(CCc1ccccc1)Cc1ccccc1 | 20 µM [rising, single point] | 11.2 µM [rising, partial curve]
CCCCn1c(N)c(C(=S)NC(=O)CC(C)(C)C)c(=O)n(C)c1=O | 35.5 µM [rising, single point] | 
O=S(=O)(NCCc1csc2nc(-c3ccccc3)nn12)c1ccc(Cl)s1 | 0.501 µM [falling, full curve, poor fit] | 2 µM [falling, partial curve, poor fit]
CCCCCCSc1nsc(NC(C)=O)n1 | 25.1 µM [rising, single point] | 12.6 µM [rising, partial curve]
CCc1ccc(-c2cc(C(=O)N3N=C(C(F)F)CC3(O)C(F)F)c3ccccc3n2)cc1 (stereo not drawn) | 10 µM [rising, partial curve, poor fit] | 
Cc1ccc(S(=O)(=O)N(C)C)cc1NC(=S)NC(C)CCCC(C)C (stereo not drawn) | 15.8 µM [rising, partial curve] | 10 µM [rising, partial curve]
CCOC(=O)c1c(C)[nH]c(CCC(=O)Nc2ccc(Cl)cc2C)c1C | 35.5 µM [rising, partial curve, poor fit] | 0.0224 µM [rising, full curve, poor fit]
COc1ccc(-c2nc3cnc(Nc4cccc(OC)c4)nc3n(Cc3cccs3)c2=O)cc1 | 11.2 µM [falling, partial curve] | 11.2 µM [falling, partial curve]
N#C/C(=C\c1ccc(Sc2ccccc2)o1)c1nc2ccccc2[nH]1 | 7.94 µM [rising, partial curve, poor fit] | 1.41 µM [rising, full curve, poor fit]
O=C(NCCCN1CCOCC1)c1csc2c1CCCC2 | 0.501 µM [falling, full curve, poor fit] | 0.355 µM [falling, full curve, poor fit]
Cc1noc(C(=O)N2CC3(C)CC2CC(C)(C)C3)c1Cl (stereo not drawn) | 35.5 µM [rising, single point] | 
O=C(Nc1cccc(Br)c1)c1ccc(Cl)c(S(=O)(=O)N2CCOCC2)c1 | 3.55 µM [rising, full curve] | 7.08 µM [rising, partial curve]
CCOc1ccc(NC(=O)c2cc3c(=O)n(Cc4cccs4)ccc3nc2C)cc1 | 6.31 µM [falling, single point] | 
Cc1sc(NC(=O)CN2CCOCC2)nc1-c1ccc2c(c1)CCN2S(=O)(=O)c1ccccc1 | 2.82 µM [rising, full curve] | 
CCN1C(=O)c2cccc3c(Cl)ccc(c23)C1=O | 0.112 µM [rising, partial curve, poor fit] | 22.4 µM [rising, partial curve, poor fit]
O=C(N/N=C/c1sc(N2CCCCC2)nc1-c1cccs1)c1cccnc1 | 15.8 µM [rising, partial curve] | 
CCN1CCN(C(=O)N2CCOCC2)CC1 |  | 0.0112 µM [falling, full curve, poor fit]
O=C(COC(=O)c1cccnc1Cl)Nc1ccccc1OC(F)F | 0.0355 µM [rising, full curve, poor fit] | 
C=CCn1c(SCC(=O)NC23CC4CC(CC(C4)C2)C3)nc2cc(C(=O)O)ccc2c1=O | 6.31 µM [falling, partial curve, poor fit] | 0.0224 µM [falling, full curve]

4 successive entries out of the list so far:
Compound | AC50 [1] | AC50 [2]
CCC(Sc1nc2ccccc2c2nc(-c3ccccc3)nn12)C(=O)Nc1cccc(OC)c1 (stereo not drawn) | 0.158 µM [rising, full curve, poor fit] | 0.112 µM [rising, full curve, poor fit]
Cc1occc1-c1nnc(SCC(=O)Nc2nc(C(C)(C)C)cs2)o1 | 10 µM [rising, partial curve] | 
O=C(NCCOc1ccccc1)c1cc(C(=O)NCCOc2ccccc2)cc([N+](=O)[O-])c1 | 22.4 µM [rising, single point] | 12.6 µM [rising, single point]
O=C(Nc1nccs1)c1ccc(COc2ccc(F)cc2)o1 |  | 20 µM [rising, partial curve]
